Reference: article PMC8446001

B1: 2HA-MLC1 wild type (megalencephalic leukoencephalopathy with subcortical cysts 1) (protein, UniProt Q15049 1-377)
chain: MTQEPFREELAYDRMPTLERGRQDPASYAPDAKPSDLQLSKRLPPCFSHKTWVFSVLMGSCLLVTSGFSLYLGNVFPAEMDYLRCAAGSCIPSAIVSFTVSRRNANVIPNFQILFVSTFAVTTTCLIWFGCKLVLNPSAININFNLILLLLLELLMAATVIIAARSSEEDCKKKKGSMSDSANILDEVPFPARVLKSYSVVEVIAGISAVLGGIIALNVDDSVSGPHLSVTFFWILVACFPSAIASHVAAECPSKCLVEVLIAISSLTSPLLFTASGYLSFSIMRIVEMFKDYPPAIKPSYDVLLLLLLLVLLLQAGLNTGTAIQCVRFKVSARLQGASWDTQNGPQERLAGEVARSPLKEFDKEKAWRAVVVQMAQ
B2: 2HA-MLC1-C326R (protein, UniProt Q15049 1-377)
chain: B1 chain with C326R
B3: 2HA-MLC1-P92S (protein, UniProt Q15049 1-377)
chain: B1 chain with P92S

Each binder was assayed against GST-GlialCAMCt (GST fusion protein containing the C-terminal tail of GlialCAM) (assay: pull-down; glutathione-Sepharose bound GST-GCAM incubated with HeLa cell lysates (0.4 mg) expressing MLC1 for 2 h at 4 °C; beads washed; SDS-PAGE and Western blot; GST alone as control; only the target purified).

binding	Binder
binds	B1
binds	B2
binds	B3

Positions count from the first letter of the chain named. Names and notes keep the numbering of the source. These are yes or no findings as the source states them, for the method shown. In cells and extracts the contact can be indirect. A result given as binding can be weak or reduced; the word gives no strength.
